The values below come from patent US20190300576A1.

By UniProt entry, the sequences of proteins in these tests, tags left out. Residues count along the entry.
UniProt Q00987, residues 25-109: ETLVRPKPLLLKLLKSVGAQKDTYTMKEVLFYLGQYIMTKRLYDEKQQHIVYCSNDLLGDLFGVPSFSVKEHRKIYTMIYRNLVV

Sequences and labels used below:
B1: peptide 9b (peptide)
peptide: LTYEHYWAQLTSK
modifications: N-terminal acetylation; C-terminal amide
B2: peptide 7b (peptide)
peptide: LTFEHYWAQYTSK
modifications: N-terminal acetylation; C-terminal amide
B3: peptide 8b (peptide)
peptide: LTLEHYWAQLTSK
modifications: N-terminal acetylation; C-terminal amide
B4: sequence 7 (Library 2 member) (peptide)
peptide: LTFEHYWAQYTSK
modifications: C-terminal amide
B5: sequence 8 (Library 2 member) (peptide)
peptide: LTLEHYWAQLTSK
modifications: C-terminal amide
B6: sequence 9 (Library 2 member) (peptide)
peptide: LTYEHYWAQLTSK
modifications: C-terminal amide
B7: (SEQ ID NO: 85) (peptide)
peptide: LTFSHYWASLTSK
modifications: C-terminal amide (-NH2)
B8: (SEQ ID NO: 83) (peptide)
peptide: LTFEHEWALLTSK
modifications: C-terminal amide (-NH2)
B9: (SEQ ID NO: 88) (peptide)
peptide: LTFPHYWAQLTSK
modifications: C-terminal amide (-NH2)
B10: (SEQ ID NO: 77) (peptide)
peptide: LTFQHYWAGLTSK
modifications: C-terminal amide (-NH2)
B11: (SEQ ID NO: 91) (peptide)
peptide: LTFFHYWAGLTSK
modifications: C-terminal amide (-NH2)
B12: (SEQ ID NO: 89) (peptide)
peptide: LTFQHYWASLTSK
modifications: C-terminal amide (-NH2)
B13: (SEQ ID NO: 87) (peptide)
peptide: LTFEHYWAALTSK
modifications: C-terminal amide (-NH2)
B14: (SEQ ID NO: 93) (peptide)
peptide: LTFFHAWAQLTSK
modifications: C-terminal amide (-NH2)
B15: (SEQ ID NO: 90) (peptide)
peptide: LTFQHFWAQLTSK
modifications: C-terminal amide (-NH2)
B16: (SEQ ID NO: 82) (peptide)
peptide: LTFAHEWALLTSK
modifications: C-terminal amide (-NH2)
B17: (SEQ ID NO: 81) (peptide)
peptide: LTFEHYWAALTSK
modifications: C-terminal amide (-NH2)
B18: (SEQ ID NO: 86) (peptide)
peptide: LTFEHEWAQLTSK
modifications: C-terminal amide (-NH2)
B19: (SEQ ID NO: 84) (peptide)
peptide: LTFFHYWAQLTSK
modifications: C-terminal amide (-NH2)
B20: (SEQ ID NO: 80) (peptide)
peptide: LTFPHYWAALTSK
modifications: C-terminal amide (-NH2)

No constants are given. Whether binding was seen depends on the method and setting. For some assays here: In cells and extracts the contact can be indirect. Some binding calls cover weakened binding; strength is not graded here.

For one assay, the target named is SUMO-^25-109MDM2 (UniProt Q00987). The experiment in a line: BLI.
Consider B1, for which the binding entry was “binds”.
Still for that read-out and setting: then B2, with “binds”.
The same measure, in the same setting: the result for B3 reads “binds”.

The next assay has the same target. The experiment in a line: HPSEC affinity selection from Library 2, low stringency, LC-MS.
As for B4, the binding result is “binds”.
In the case of B5, the binding result is “binds”.
Still for that read-out and setting: then B6, with “binds”.

For a further assay the target is unchanged. Briefly: HPSEC affinity selection from Library 1 by MDM2, LC-MS/MS de novo decoding.
With B7, the binding entry was “binds”.
With B8, the binding entry is listed as “binds”.
The same measure, in the same setting: then B9, with “binds”; and B10, with “binds”.
Regarding B11, the binding result is “binds”.
Still for that read-out and setting: then B12, with “binds”; and B13, with “binds”.
On the same count and under the same terms, then B14, with “binds”.
Consider B15, for which the binding entry is on record as “binds”.
The same measure, in the same setting: the result for B16 reads “binds”; that for B17, “binds”.
The same measure, in the same setting: the result for B18 reads “binds”.
On the same count and under the same terms, then B19, with “binds”; and B20, with “binds”.
